Measurements taken from patent US20220041697A1.
Results are given in words; binding and its absence hold for the method and conditions named. Some binding calls cover weakened binding; strength is not graded here.

The chains behind the UniProt entries cited, without tags or fusion partners. Where a name states a change or a piece, a line headed by the entry shows the natural chain unless it says otherwise. A line that says so, or that is headed by a name, gives the form on record, which may keep a tag or linker.
pathological tau protein in human brain tissue (P10636, form named): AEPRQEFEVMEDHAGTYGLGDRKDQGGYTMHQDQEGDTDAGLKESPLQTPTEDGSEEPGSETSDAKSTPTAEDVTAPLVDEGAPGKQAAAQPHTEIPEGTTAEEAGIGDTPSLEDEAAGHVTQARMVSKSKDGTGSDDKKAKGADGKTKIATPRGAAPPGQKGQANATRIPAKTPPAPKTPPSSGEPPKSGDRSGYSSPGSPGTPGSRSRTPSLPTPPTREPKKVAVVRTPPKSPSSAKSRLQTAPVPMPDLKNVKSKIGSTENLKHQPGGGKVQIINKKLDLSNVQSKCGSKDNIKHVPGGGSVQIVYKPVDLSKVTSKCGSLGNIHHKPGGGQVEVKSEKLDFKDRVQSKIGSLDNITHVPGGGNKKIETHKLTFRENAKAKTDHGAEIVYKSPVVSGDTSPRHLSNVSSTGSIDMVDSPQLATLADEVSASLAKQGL

Legend:
[1] = biological target: enriched human paired helical filament pathological tau protein (PHF) derived from human tauopathy brain (human) (UniProt P10636); assay: mixed primary JNPL3 mouse brain culture treated with human PHF (FIG. 3 legend)
[2] = biological target: pathological tau protein in human brain tissue (human) (UniProt P10636); assay: immunohistochemistry on human brain tissue (FIG. 2A legend)
[3] = biological target: pathological tau protein in human brain tissue (human) (UniProt P10636); assay: immunohistochemistry on fixed human tauopathy brain tissue (FIG. 2A)

binding [1]: binds | binding [2]: binds | binding [3]: binds
B1: Tau mAb 8B2D1 (antibody, V domains shown)
VH: EVQLQQSGPELVKPGASVKMSCKASGYTFTSYVIHWVKQKPGQGLEWIGYIYPYNDGTIYNEKFKGKATLTSDTSSSTVYMELISLTAEDSAVYWCVRERDNYGVYWGQGTTLTVSS
VL: DVLLTQTPLSLPVSLGDQASISCRSSQSIVHSNGNTYLEWYLQKPGQSPELLIYKVSNRFYGVPDRFSGSGSGTDFTLKISRVEAEDLGVYYCFQDSHIPYTFGGGTRLEIK
